Assay results from publication PMC6131194.
These are yes or no findings as the source states them, for the method shown.

biological target: T1, RiCRN1ΔSP (RiCRN1 without signal peptide) (R. irregularis); experiment: two-hybrid; bait (pGBKT7) and prey (pGADT7) vectors co-transformed in S. cerevisiae AH109; interaction tested on SD medium lacking leucine, tryptophan, histidine and adenine; growth validated after 5 days at 30°C
T1 sequence: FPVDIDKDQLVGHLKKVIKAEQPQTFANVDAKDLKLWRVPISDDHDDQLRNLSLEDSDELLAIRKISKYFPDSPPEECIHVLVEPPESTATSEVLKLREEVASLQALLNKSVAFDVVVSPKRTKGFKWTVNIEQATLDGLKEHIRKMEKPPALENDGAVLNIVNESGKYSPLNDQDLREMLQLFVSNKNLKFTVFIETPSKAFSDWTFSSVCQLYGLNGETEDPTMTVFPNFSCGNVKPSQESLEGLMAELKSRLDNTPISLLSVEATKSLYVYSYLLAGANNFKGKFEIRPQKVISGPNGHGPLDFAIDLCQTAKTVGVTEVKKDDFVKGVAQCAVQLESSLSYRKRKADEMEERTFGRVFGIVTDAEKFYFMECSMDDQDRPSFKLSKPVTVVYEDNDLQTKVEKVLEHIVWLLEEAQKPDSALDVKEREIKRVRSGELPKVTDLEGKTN

Row | binding | Substance
1 | no binding | MtSR45 (M. truncatula (from the prefix Mt))
2 | no binding | MtU1-70K (M. truncatula (from the prefix Mt))
3 | no binding | MtU2AF^35b (M. truncatula (from the prefix Mt))
